# Further values from the same series stand in other lists.
# Test system: peripheral blood mononuclear cells (PBMC)
# Assay: Microarray analysis (3), dose-dependent intron expression in PBMC at 3, 10, 30 nM, Table 5
# Assay type: cell-based, human
# Protocol: PBMC was suspended in RPMI1640 medium (containing 10% FBS, penicillin, and streptomycin) to 5×10^6 cells/ml and 1 ml of the suspension was plated per well of a 24-well plate. Immediately, 111 μl of 10 times-concentrated (8E,12E,14E)-7-((4-cycloheptylpiperazin-1-yl)carbonyl)oxy-3,6,16,21-tetrahydroxy-6,10,12,16,20-pentamethyl-18,19-epoxytricosa-8,12,14-trien-11-olide was added to the well (six wells per each concentration tested). The cells were then cultured in an incubator with 5% carbon dioxide gas at 37° C. Three hours later, the supernatant was collected and centrifuged at 1500 rpm for five minutes. TRI reagent (SIGMA) (1 ml) was added to each well of the plate from which the supernatant was removed to harvest the cells, which was added to the centrifuged pellet to dissolve. RNA was purified in accordance with the protocol of TRI reagent. RNA was further purified using RNeasy (QIAGEN) and, in accordance with the protocol, DNaseI was added to the samples during the procedure. Absorbance at 260 nm was measured to quantify an amount of RNA.
# Ribosomal RNA was removed from 1 μg of each total RNA of control cells (n=3) and cells with the treatment (n=3) using RiboMinus Human/Mouse Transcriptome Isolation Kit (Invitrogen). Single stranded cDNA synthesis, double stranded cDNA synthesis, cRNA synthesis, second single stranded cDNA synthesis, cDNA fragmentation, and cDNA labeling in order were carried out for total RNA from which ribosomal RNA was removed, using GeneChip Whole Transcript Sense Target Labeling and Control Reagents (Affymetrix) to make a cDNA probe. Subsequently, the cDNA probe was used for hybridization with Human Exon 1.0 ST Array (Affymetrix). The array was washed and stained, and luminescence intensity was measured by a scanner.
# The expression level of the probe set and the gene was quantified by using Expression Console Ver. 1.0 (Affymetrix) with Summarization Method and Normalization Method being set to “Median polish as used in RMA” and “None”, respectively. The expression level of the probe was normalized with that of the gene.
# Probe sets showing that the normalized change in the level expression of the probe set in the group with the treatment at 30 nM was more than 5 times; the expression level of the probe set and the gene in the group with the treatment at 30 nM was more than 100; and probe set annotation was “extended, full, free”, were picked out. Regression analysis was performed with the probe sets extracted for the control group, the group with the treatment at 3 nM, the group with the treatment at 10 nM, and the group with the treatment at 30 nM to determine a p and q value for the slope of regression formula. A gene containing the probe sets with the q value of less than 5% was determined as a candidate gene with increased expression level of the intron regions (Table 5).
# In Table 5, for the gene evaluated, gene name (Gene Name), abbreviated name (Gene Symbol), accession number (Accession), alias name (Synonym), transcription cluster number in Human Exon 1.0 ST Array (Human Exon 1.0 ST Array Transcription Cluster ID), chromosome number (Chromosome), type of strand (Strand), start region (Start), stop region (Stop), and change in expression level per 1 nM (Fold Change/nM) were respectively shown.
smiles,measurement,setting,value
"CCC(O)C(C)C1OC1CC(C)(O)/C=C/C=C(\C)C1OC(=O)CC(O)CCC(C)(O)C(OC(=O)N2CCN(C3CCCCCC3)CC2)/C=C/C1C (centres unmarked) [E7107, (8E,12E,14E)-7-((4-cycloheptylpiperazin-1-yl)carbonyl)oxy-3,6,16,21-tetrahydroxy-6,10,12,16,20-pentamethyl-18,19-epoxytricosa-8,12,14-trien-11-olide]",Fold Change/nM,"introns of gene FLJ12529, regression over control, 3, 10, 30 nM",1.04 nM⁻¹
same,Fold Change/nM,"introns of gene FLJ21438, regression over control, 3, 10, 30 nM",1.04 nM⁻¹
same,Fold Change/nM,"introns of gene FNDC3B, regression over control, 3, 10, 30 nM",1.06 nM⁻¹
same,Fold Change/nM,"introns of gene FOSB, regression over control, 3, 10, 30 nM",1.04 nM⁻¹
same,Fold Change/nM,"introns of gene FOXO1A, regression over control, 3, 10, 30 nM",1.04 nM⁻¹
same,Fold Change/nM,"introns of gene FUS, regression over control, 3, 10, 30 nM",1.04 nM⁻¹
same,Fold Change/nM,"introns of gene GAB2, regression over control, 3, 10, 30 nM",1.07 nM⁻¹
same,Fold Change/nM,"introns of gene GCC2, regression over control, 3, 10, 30 nM",1.06 nM⁻¹
same,Fold Change/nM,"introns of gene GNL2, regression over control, 3, 10, 30 nM",1.06 nM⁻¹
same,Fold Change/nM,"introns of gene GPIAP1, regression over control, 3, 10, 30 nM",1.04 nM⁻¹
same,Fold Change/nM,"introns of gene GRASP, regression over control, 3, 10, 30 nM",1.04 nM⁻¹
same,Fold Change/nM,"introns of gene GRB2, regression over control, 3, 10, 30 nM",1.06 nM⁻¹
same,Fold Change/nM,"introns of gene GTPBP2, regression over control, 3, 10, 30 nM",1.04 nM⁻¹
same,Fold Change/nM,"introns of gene HERC1, regression over control, 3, 10, 30 nM",1.04 nM⁻¹
same,Fold Change/nM,"introns of gene HERPUD1, regression over control, 3, 10, 30 nM",1.06 nM⁻¹
same,Fold Change/nM,"introns of gene HLA-E, regression over control, 3, 10, 30 nM",1.04 nM⁻¹
same,Fold Change/nM,"introns of gene HRB, regression over control, 3, 10, 30 nM",1.04 nM⁻¹
same,Fold Change/nM,"introns of gene HSP90AA1 // HSP90AA2 // HSP90AA6P, regression over control, 3, 10, 30 nM",1.06 nM⁻¹
same,Fold Change/nM,"introns of gene HSPA5, regression over control, 3, 10, 30 nM",1.08 nM⁻¹
same,Fold Change/nM,"introns of gene IARS, regression over control, 3, 10, 30 nM",1.05 nM⁻¹
same,Fold Change/nM,"introns of gene IBRDC3, regression over control, 3, 10, 30 nM",1.06 nM⁻¹
same,Fold Change/nM,"introns of gene IL1A, regression over control, 3, 10, 30 nM",1.07 nM⁻¹
same,Fold Change/nM,"introns of gene IL1RN, regression over control, 3, 10, 30 nM",1.08 nM⁻¹
same,Fold Change/nM,"introns of gene INPP5A, regression over control, 3, 10, 30 nM",1.07 nM⁻¹
same,Fold Change/nM,"introns of gene IRAK2, regression over control, 3, 10, 30 nM",1.06 nM⁻¹
same,Fold Change/nM,"introns of gene ITGA5, regression over control, 3, 10, 30 nM",1.06 nM⁻¹
same,Fold Change/nM,"introns of gene ITGB1, regression over control, 3, 10, 30 nM",1.04 nM⁻¹
same,Fold Change/nM,"introns of gene JARID2 // C20orf120, regression over control, 3, 10, 30 nM",1.04 nM⁻¹
same,Fold Change/nM,"introns of gene JMJD1A, regression over control, 3, 10, 30 nM",1.04 nM⁻¹
same,Fold Change/nM,"introns of gene JMJD2C, regression over control, 3, 10, 30 nM",1.04 nM⁻¹
same,Fold Change/nM,"introns of gene KIAA0317, regression over control, 3, 10, 30 nM",1.04 nM⁻¹
same,Fold Change/nM,"introns of gene KIAA0430, regression over control, 3, 10, 30 nM",1.04 nM⁻¹
same,Fold Change/nM,"introns of gene KIAA0652, regression over control, 3, 10, 30 nM",1.04 nM⁻¹
same,Fold Change/nM,"introns of gene KIAA0831, regression over control, 3, 10, 30 nM",1.04 nM⁻¹
same,Fold Change/nM,"introns of gene KIAA1128, regression over control, 3, 10, 30 nM",1.04 nM⁻¹
same,Fold Change/nM,"introns of gene LBR, regression over control, 3, 10, 30 nM",1.04 nM⁻¹
same,Fold Change/nM,"introns of gene LCP1, regression over control, 3, 10, 30 nM",1.04 nM⁻¹
same,Fold Change/nM,"introns of gene LDB1, regression over control, 3, 10, 30 nM",1.05 nM⁻¹
same,Fold Change/nM,"introns of gene LPXN, regression over control, 3, 10, 30 nM",1.06 nM⁻¹
same,Fold Change/nM,"introns of gene LRPPRC, regression over control, 3, 10, 30 nM",1.04 nM⁻¹
same,Fold Change/nM,"introns of gene LSM14A, regression over control, 3, 10, 30 nM",1.05 nM⁻¹
same,Fold Change/nM,"introns of gene LYN, regression over control, 3, 10, 30 nM",1.04 nM⁻¹
same,Fold Change/nM,"introns of gene MARCKS, regression over control, 3, 10, 30 nM",1.07 nM⁻¹
same,Fold Change/nM,"introns of gene MAZ // KIF22, regression over control, 3, 10, 30 nM",1.04 nM⁻¹
same,Fold Change/nM,"introns of gene MCTP1, regression over control, 3, 10, 30 nM",1.05 nM⁻¹
same,Fold Change/nM,"introns of gene MGAT4A // MGC52110, regression over control, 3, 10, 30 nM",1.07 nM⁻¹
same,Fold Change/nM,"introns of gene MGC40489, regression over control, 3, 10, 30 nM",1.05 nM⁻¹
same,Fold Change/nM,"introns of gene MKLN1, regression over control, 3, 10, 30 nM",1.07 nM⁻¹
same,Fold Change/nM,"introns of gene MLL5, regression over control, 3, 10, 30 nM",1.06 nM⁻¹
same,Fold Change/nM,"introns of gene MPP7, regression over control, 3, 10, 30 nM",1.07 nM⁻¹
same,Fold Change/nM,"introns of gene MRPS7, regression over control, 3, 10, 30 nM",1.04 nM⁻¹
same,Fold Change/nM,"introns of gene MSC, regression over control, 3, 10, 30 nM",1.06 nM⁻¹
same,Fold Change/nM,"introns of gene NARG2, regression over control, 3, 10, 30 nM",1.04 nM⁻¹
same,Fold Change/nM,"introns of gene NBN, regression over control, 3, 10, 30 nM",1.06 nM⁻¹
same,Fold Change/nM,"introns of gene NDUFA5, regression over control, 3, 10, 30 nM",1.04 nM⁻¹
same,Fold Change/nM,"introns of gene NECAP2, regression over control, 3, 10, 30 nM",1.06 nM⁻¹

# From patent publication US20100021918A1, “METHOD FOR ASSAYING ACTION OF ANTITUMOR AGENT USING SPLICING DEFECTS AS INDEX” (Eisai R&D Management Co., Ltd., priority 2007, published 2010)
